These are yes or no findings as the source states them, for the method shown. Binding seen in cells or lysates may run through a third protein. Tags and fused reporters may be left off the sequences shown.
Target: T1, Flag-tagged 6-phosphogluconate dehydrogenase (6PGD) (UniProt P52209)
T1 sequence: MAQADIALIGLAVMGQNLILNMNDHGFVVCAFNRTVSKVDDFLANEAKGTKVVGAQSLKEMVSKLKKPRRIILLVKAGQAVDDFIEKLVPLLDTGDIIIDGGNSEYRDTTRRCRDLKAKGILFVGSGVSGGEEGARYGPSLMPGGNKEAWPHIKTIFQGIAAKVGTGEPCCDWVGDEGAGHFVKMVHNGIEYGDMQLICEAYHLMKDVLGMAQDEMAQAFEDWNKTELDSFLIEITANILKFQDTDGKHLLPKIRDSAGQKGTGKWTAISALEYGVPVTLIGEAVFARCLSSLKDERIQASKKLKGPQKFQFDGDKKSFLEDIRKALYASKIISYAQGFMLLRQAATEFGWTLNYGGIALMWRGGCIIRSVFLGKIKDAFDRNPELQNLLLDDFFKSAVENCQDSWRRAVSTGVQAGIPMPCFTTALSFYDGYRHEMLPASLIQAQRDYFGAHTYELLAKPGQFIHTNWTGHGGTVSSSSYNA
Experiment: co-IP; 6PGD Flag pull-down from HCT116, HCT8 and LoVo cells, western blotting of m6A-related proteins

Amino acid sequences for entries named in this document (tags omitted).
UniProt Q86U44: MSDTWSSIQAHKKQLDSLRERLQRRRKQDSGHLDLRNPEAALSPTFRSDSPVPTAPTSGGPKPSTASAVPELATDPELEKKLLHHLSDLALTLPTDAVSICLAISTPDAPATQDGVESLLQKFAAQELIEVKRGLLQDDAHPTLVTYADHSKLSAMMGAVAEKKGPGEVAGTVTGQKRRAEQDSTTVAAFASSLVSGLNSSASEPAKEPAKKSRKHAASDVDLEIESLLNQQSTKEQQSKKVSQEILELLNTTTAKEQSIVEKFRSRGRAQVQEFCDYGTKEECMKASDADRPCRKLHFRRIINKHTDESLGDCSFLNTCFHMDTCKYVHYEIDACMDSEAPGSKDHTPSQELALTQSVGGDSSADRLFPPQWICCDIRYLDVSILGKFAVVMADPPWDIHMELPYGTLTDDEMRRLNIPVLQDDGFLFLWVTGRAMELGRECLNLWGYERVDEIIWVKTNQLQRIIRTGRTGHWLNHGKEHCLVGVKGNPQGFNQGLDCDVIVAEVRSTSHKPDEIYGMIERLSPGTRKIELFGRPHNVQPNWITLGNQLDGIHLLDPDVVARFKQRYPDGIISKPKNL

binding: no binding
Substance: METTL3, endogenous (from UniProt Q86U44 1-580) (enzyme)

Reference: article PMC12224427
